Consider two molecules from paper PMC8121366, “Crystal and solution structures reveal oligomerization of individual capsid homology domains of Drosophila Arc” (PLoS ONE, 2021).

Experiment [1] deals with Drosophila Arc2 C-lobe (Drosophila) (UniProt Q7JV70). The experiment in a line: crystal structure; sitting-drop vapor diffusion at +20°C; oligomeric states from crystal symmetry with PISA; both purified.
The target of experiment [2] is T1, Drosophila Arc2 N-lobe (Drosophila) (UniProt Q7JV70).
T1 sequence: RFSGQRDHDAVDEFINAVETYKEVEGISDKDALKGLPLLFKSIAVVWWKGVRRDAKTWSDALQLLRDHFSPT
The experiment in a line: condition: 0.5 mM dArc N-lobe in the cell; peptide in the syringe 10-fold higher; ITC; Arc N-lobe in the cell (0.5 mM dArc N-lobes, 0.25 mM hArc N-lobe), peptide in the syringe 10-fold higher; TBS; +25°C; one-site binding model; both purified.

Results are given in words; binding and its absence hold for the method and conditions named. Some results given as binding are weak or reduced against the parent protein; the word gives no strength.

B1: Drosophila Arc2 C-lobe (domain or fragment)
chain: KPSYQIYMEIFETKQSYDEVIDSFICKQRALLAKLPEGRHDEETELDFIYGLMQPKYRESIPRHEVKTFRELLDRGRTVERTRH
notes: Arc2 (dArc2) of Drosophila, isolated C-lobe; monomeric mass 10 kDa; Dimer in the crystal and in solution; also called dArc2-CL; source: E. coli BL21(DE3), purified (Ni-NTA, TEV cleavage, second Ni-NTA, amylose resin, Superdex S200); not shown: His tag, N-terminal, cleaved; MBP, N-terminal, cleaved
For B1, the binding result in experiment [1] is listed as “binds”.

On to RIPSYRYR (N-terminal acetylation; C-terminal amidation) [stargazin peptide], for which the binding result in experiment [2] is given as “no binding”.
